# Test results taken from the supplement of paper PMC12067093, “Discovery and optimisation of a covalent ligand for TRIM25 and its application to targeted protein ubiquitination” (Chemical Science, 2025).
# Some of the results follow.
# Compound: Cc1cc(ccc1-c1ccccc1)C(=O)N1CCCN(CC1)C(=O)CCl [compound 10]
# Test: probe-labelled cysteine peptide fold change vs DMSO (competition) (log2 fold change); higher = less target engagement (more negative = stronger competition)
# Details: 50 µM; THP-1; incubation time: 4 h
# 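Note: competitive profiling in live THP-1 cells: cysteine peptides tagged with an iodoacetamide desthiobiotin (IA-DTB) probe, intensity after compound treatment relative to DMSO-treated cells.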
row,Target,probe-labelled cysteine peptide fold change
1,CPSF1_Q10570_20_QAHPPTGLEFSMYCNFFNNSER (UniProt Q10570),0.306
2,CSTF2T_Q9H0L4_441_GMETCAMETR (UniProt Q9H0L4),-0.575
3,CPNE1_Q99829_30_SDPLCVLLQDVGGGSWAELGR (UniProt Q99829),0.0741
4,CTNNB1_P35222_520_NLALCPANHAPLREQGAIPR (UniProt P35222),0.506
5,CRLF3_Q8IUI8_336_DSIGVCAEK (UniProt Q8IUI8),-0.0686
6,CORO7_P57737_505_GLNLTTPGESDGFCANK (UniProt P57737),0.0129
7,CST3_P01034_123_AFCSFQIYAVPWQGTMTLSK (UniProt P01034),-0.359
8,CTCF_P49711_155_EGLAESEPMICHTLPLPEGFQVVK (UniProt P49711),-0.277
9,CRYBG3_Q68DQ2_474_HEHLQLPESECSDK (UniProt Q68DQ2),0.0162
10,CREBBP_Q92793_1213_KYEFSPQTLCCYGK (UniProt Q92793),-0.514
11,CRELD2_Q6UXH1_294_EHGQCADVDECSLAEK (UniProt Q6UXH1),-0.125
12,CTBS_Q01459_93_YDSELMCYAHSK (UniProt Q01459),-0.302
13,CREBBP_Q92793_1212_KYEFSPQTLCCYGK (UniProt Q92793),-0.659
14,CPSF1_Q10570_1178_GPVTALCHCNGHLVSAIGQK (UniProt Q10570),-0.143
15,COX20_Q5RI15_29_LLGFLDVENTPCAR (UniProt Q5RI15),-0.0857
16,CSTF3_Q12996_536_FMDLYPCSASELK (UniProt Q12996),0.0893
17,CRELD1_Q96HD1_281_ACLGCMGAGPGR (UniProt Q96HD1),-0.0736
18,CTAGE5_O15320_579_GPGNPLDHQITNERGESSCDR (UniProt Q96PC5+O15320),-0.191
19,CSDE1_O75534_645_GDCLQK (UniProt O75534),-0.107
20,CRACR2A_Q9BSW2_220_NELECALK (UniProt Q9BSW2),-0.174

# For convenience, part of the list above.
row,Target,probe-labelled cysteine peptide fold change
8,CTCF_P49711_155_EGLAESEPMICHTLPLPEGFQVVK (UniProt P49711),-0.277
9,CRYBG3_Q68DQ2_474_HEHLQLPESECSDK (UniProt Q68DQ2),0.0162

# (list continues)

row,Target,probe-labelled cysteine peptide fold change
1,CORO6_Q6QEF8_344_CEPIIMTVPR (UniProt Q6QEF8),0.119
2,CRBN_Q96SW2_234_FHCANLTSWPR (UniProt Q96SW2),-0.0309
3,CTCF_P49711_557_YHDPNFVPAAFVCSK (UniProt P49711),0.136
4,CROT_Q9UKG9_584_SCPETDAEK (UniProt Q9UKG9),0.181
5,CSDE1_O75534_106_MNGQVVCAVPHNLESK (UniProt O75534),0.0557
6,CRYZ_Q08257_45_VHACGVNPVETYIR (UniProt Q08257),-0.01
7,CTPS1_P17812_216_GLGLSPDLVVCR (UniProt P17812),-0.31
8,CSDE1_O75534_739_VCEGPK (UniProt O75534),-0.0903
9,CRIP1_P50238_28_DWHRPCLK (UniProt P50238),-0.232
10,CROT_Q9UKG9_210_AFVFDVIHEGCLVTPPELLR (UniProt Q9UKG9),-0.163
11,CPSF1_Q10570_324_ITLDCAQATFISYDK (UniProt Q10570),0.335
12,CSDE1_O75534_506_QRPGQQVATCVR (UniProt O75534),-0.267
13,CRABP1_P29762_96_IHCTQTLLEGDGPK (UniProt P29762),-0.112
14,CSRP1_P21291_34_SCFLCMVCK (UniProt P21291),-0.00146
15,CPSF4_O95639_162_RVICVNYLVGFCPEGPSCK (UniProt O95639),0.014
16,CPSF1_Q10570_532_SIRPQVVTTFELPGCYDMWTVIAPVRK (UniProt Q10570),0.139
17,CROT_Q9UKG9_166_MLFSTCK (UniProt Q9UKG9),-0.0687
18,CSDE1_O75534_680_ATVECVK (UniProt O75534),-0.0953
19,COX17_Q14061_23+24_KPLKPCCACPETK (UniProt Q14061),-2.25
20,CRYBG1_Q9Y4K1_594+609_EVQLPTCHSNEPEVVSVASCAPPQEEVLGNEHSHCTAELAAK (UniProt Q9Y4K1),-0.546
